Measurements reported in PubChem BioAssay AID652243 (Drosophila RNAi Screening Center, 2013).

Test: 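Fly genes required for human androgen receptor driven transcription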 (primary screen)
System: Drosophila S2R+ cells
Reagents: long dsRNA against Drosophila genes
Timing: 72 h (48 h, then 24 h hormone)
Treatment: synthetic androgen R1881 at 10 nM for 24 h
Measured: 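Firefly light from an androgen-responsive reporter and Renilla control light per well, raw and unnormalised, for each of two replicates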
Scale: firefly reporter light: higher = more light from androgen-responsive reporter; Renilla control light: higher = more constitutive control signal (cell number, transfection)
Call rule: 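Hit when the log firefly-to-Renilla ratio dropped or increased by a fixed fold versus the mean of GFP or LacZ controls across duplicate plates; lowering cut given as 1.5 and as 3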
Calls: active = hit: reporter lowered or raised; inactive = no hit
The deposit covers about 24,000 reagents; shown is a random part of those with a known target gene and a result. In the full data, 246 (1%) got an active call. 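Plates not normalised; calls are printed but the firefly/Renilla ratio behind them is not deposited; fold cut for lowering reported inconsistently.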 The raw values are shown without normalisation. Unmarked entries are inactive. Reagents against one gene are numbered here. Reagent sequences are not shown. The record does not give: the amount of reagent.

With knock-down of CG7519 the results were firefly reporter light, replicate 1 = 2.47e5; firefly reporter light, replicate 2 = 2.94e5; Renilla control light, replicate 1 = 2.05e6; Renilla control light, replicate 2 = 2.64e6.
Knock-down of CG15464 (retired record) #1 resulted in: firefly reporter light, replicate 1 = 4.46e5; firefly reporter light, replicate 2 = 5.34e5; Renilla control light, replicate 1 = 2.18e6; Renilla control light, replicate 2 = 3.06e6.
Against CG15464 (retired record) #2 the deposit lists firefly reporter light, replicate 1 = 1.22e6; firefly reporter light, replicate 2 = 9.85e5; Renilla control light, replicate 1 = 2.72e6; Renilla control light, replicate 2 = 2.00e6.
After knock-down of Vps53 (Vacuolar protein sorting 53), the record shows firefly reporter light, replicate 1 = 8.44e5; firefly reporter light, replicate 2 = 1.02e6; Renilla control light, replicate 1 = 1.83e6; Renilla control light, replicate 2 = 1.68e6.
After knock-down of yin #1, the screen gave firefly reporter light, replicate 1 = 1.02e5; firefly reporter light, replicate 2 = 1.26e5; Renilla control light, replicate 1 = 1.27e6; Renilla control light, replicate 2 = 9.90e5.
With knock-down of yin #2, the record shows firefly reporter light, replicate 1 = 9.68e5; firefly reporter light, replicate 2 = 8.87e5; Renilla control light, replicate 1 = 1.55e6; Renilla control light, replicate 2 = 1.08e6.
Knock-down of yin #3 gave: firefly reporter light, replicate 1 = 1.10e6; firefly reporter light, replicate 2 = 7.21e5; Renilla control light, replicate 1 = 2.39e6; Renilla control light, replicate 2 = 2.73e6.
After knock-down of CG14329, the screen gave firefly reporter light, replicate 1 = 1.00e5; firefly reporter light, replicate 2 = 94985; Renilla control light, replicate 1 = 7.88e5; Renilla control light, replicate 2 = 6.15e5.
Zip89B (Zinc/iron regulated transporter-related protein 89B) #1 gave firefly reporter light, replicate 1 = 66186; firefly reporter light, replicate 2 = 1.09e5; Renilla control light, replicate 1 = 1.41e6; Renilla control light, replicate 2 = 1.80e6.
For Zip89B (Zinc/iron regulated transporter-related protein 89B) #2, the entry reads firefly reporter light, replicate 1 = 6.34e5; firefly reporter light, replicate 2 = 5.50e5; Renilla control light, replicate 1 = 1.77e6; Renilla control light, replicate 2 = 1.64e6.
Depletion of CG31528 gave: firefly reporter light, replicate 1 = 1.70e5; firefly reporter light, replicate 2 = 1.51e5; Renilla control light, replicate 1 = 5.19e5; Renilla control light, replicate 2 = 5.86e5.
Depletion of beat-VI (beaten path VI) #1 resulted in: firefly reporter light, replicate 1 = 2.35e5; firefly reporter light, replicate 2 = 1.99e5; Renilla control light, replicate 1 = 2.95e6; Renilla control light, replicate 2 = 2.96e6.
After knock-down of beat-VI (beaten path VI) #2, the screen gave firefly reporter light, replicate 1 = 1.34e5; firefly reporter light, replicate 2 = 1.25e5; Renilla control light, replicate 1 = 1.96e6; Renilla control light, replicate 2 = 1.84e6.
Dis3 showed firefly reporter light, replicate 1 = 37761; firefly reporter light, replicate 2 = 59490; Renilla control light, replicate 1 = 4.66e5; Renilla control light, replicate 2 = 5.42e5.

Laid out differently: 2 of the entries above.
{"gene":"CG15464 (retired record)","dsRNA no.":1,"firefly reporter light, replicate 1":4.46e5,"firefly reporter light, replicate 2":5.34e5,"Renilla control light, replicate 1":2.18e6,"Renilla control light, replicate 2":3.06e6}
{"gene":"CG15464 (retired record)","dsRNA no.":2,"firefly reporter light, replicate 1":1.22e6,"firefly reporter light, replicate 2":9.85e5,"Renilla control light, replicate 1":2.72e6,"Renilla control light, replicate 2":2.00e6}

The results go on.
w (white) #1 showed firefly reporter light, replicate 1 = 2.66e5; firefly reporter light, replicate 2 = 2.31e5; Renilla control light, replicate 1 = 2.69e6; Renilla control light, replicate 2 = 2.57e6.
For w (white) #2 the deposit lists firefly reporter light, replicate 1 = 8.12e5; firefly reporter light, replicate 2 = 7.75e5; Renilla control light, replicate 1 = 1.16e6; Renilla control light, replicate 2 = 1.06e6.
Depletion of PolI (DNA polymerase iota) resulted in: firefly reporter light, replicate 1 = 89524; firefly reporter light, replicate 2 = 73059; Renilla control light, replicate 1 = 1.97e6; Renilla control light, replicate 2 = 1.32e6.
Knock-down of CG33998 came out at: firefly reporter light, replicate 1 = 6.31e5; firefly reporter light, replicate 2 = 6.63e5; Renilla control light, replicate 1 = 9.37e5; Renilla control light, replicate 2 = 7.08e5.
beta-Spec (beta Spectrin) gave firefly reporter light, replicate 1 = 5.11e5; firefly reporter light, replicate 2 = 5.49e5; Renilla control light, replicate 1 = 3.51e6; Renilla control light, replicate 2 = 3.39e6.
For Kpc1 (Kip1 ubiquitination-promoting complex subunit 1), the values are firefly reporter light, replicate 1 = 73050; firefly reporter light, replicate 2 = 97674; Renilla control light, replicate 1 = 1.01e6; Renilla control light, replicate 2 = 1.03e6.
Ubc4 (Ubiquitin conjugating enzyme 4) showed firefly reporter light, replicate 1 = 8.77e5; firefly reporter light, replicate 2 = 8.03e5; Renilla control light, replicate 1 = 1.53e6; Renilla control light, replicate 2 = 1.57e6.
